In paper doi:10.1101/2023.01.12.523719:
No constants are given. Whether binding was seen depends on the method and setting. In cells and extracts the contact can be indirect. Some results given as binding are weak or reduced against the parent protein; the word gives no strength. For some assays here: Tags and fused reporters may be left off the sequences shown.

Sequences of proteins named here, by UniProt entry; tags and fusion partners are left off.
UniProt Q810Q5: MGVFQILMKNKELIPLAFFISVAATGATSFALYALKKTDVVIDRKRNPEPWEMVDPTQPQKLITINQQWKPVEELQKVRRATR

T1: endogenous NLRP6 (mouse (endogenous in small intestinal enterocytes)) (UniProt Q91WS2)
T1 sequence: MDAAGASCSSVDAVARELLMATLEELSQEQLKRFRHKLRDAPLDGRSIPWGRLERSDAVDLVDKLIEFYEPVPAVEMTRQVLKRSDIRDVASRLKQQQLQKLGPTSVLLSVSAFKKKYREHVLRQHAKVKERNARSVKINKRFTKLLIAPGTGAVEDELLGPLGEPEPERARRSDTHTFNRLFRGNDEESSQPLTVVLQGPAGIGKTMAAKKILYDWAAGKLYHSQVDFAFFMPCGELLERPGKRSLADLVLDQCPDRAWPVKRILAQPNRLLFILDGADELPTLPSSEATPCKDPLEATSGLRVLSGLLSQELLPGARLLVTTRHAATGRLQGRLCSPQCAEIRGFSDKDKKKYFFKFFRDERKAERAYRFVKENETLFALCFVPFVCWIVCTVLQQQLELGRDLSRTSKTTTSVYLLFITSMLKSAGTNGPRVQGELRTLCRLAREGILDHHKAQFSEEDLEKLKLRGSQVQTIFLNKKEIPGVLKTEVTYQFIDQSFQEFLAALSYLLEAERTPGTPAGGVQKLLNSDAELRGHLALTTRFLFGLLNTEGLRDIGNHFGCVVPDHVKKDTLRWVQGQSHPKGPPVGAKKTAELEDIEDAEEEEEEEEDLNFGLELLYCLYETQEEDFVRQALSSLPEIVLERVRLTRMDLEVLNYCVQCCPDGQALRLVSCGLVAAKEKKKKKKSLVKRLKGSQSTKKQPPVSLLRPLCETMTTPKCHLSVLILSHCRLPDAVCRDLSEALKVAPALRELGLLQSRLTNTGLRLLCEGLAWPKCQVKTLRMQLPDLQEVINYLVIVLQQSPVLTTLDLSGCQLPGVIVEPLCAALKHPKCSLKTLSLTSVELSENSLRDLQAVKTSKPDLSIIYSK

T2: Myc-tagged NLRP6 full-length (UniProt Q91WS2)
T2 sequence: T1 sequence

B1: Myc-tagged NLRP6 full-length (protein, UniProt Q91WS2 1-869)
chain: T1 sequence
B2: endogenous NLRP6 (protein, UniProt Q91WS2 1-869)
chain: T1 sequence
B3: Myc-tagged caspase-1 (enzyme, UniProt P29452 1-402)
chain: MADKILRAKRKQFINSVSIGTINGLLDELLEKRVLNQEEMDKIKLANITAMDKARDLCDHVSKKGPQASQIFITYICNEDCYLAGILELQSAPSAETFVATEDSKGGHPSSSETKEEQNKEDGTFPGLTGTLKFCPLEKAQKLWKENPSEIYPIMNTTTRTRLALIICNTEFQHLSPRVGAQVDLREMKLLLEDLGYTVKVKENLTALEMVKEVKEFAACPEHKTSDSTFLVFMSHGIQEGICGTTYSNEVSDILKVDTIFQMMNTLKCPSLKDKPKVIIIQACRGEKQGVVLLKDSVRDSEEDFLTDAIFEDDGIKKAHIEKDFIAFCSSTPDNVSWRHPVRGSLFIESLIKHMKEYAWSCDLEDIFRKVRFSFEQPEFRLQMPTADRVTLTKRFYLFPGH
B4: Myc-tagged GSDMD (protein, UniProt Q9D8T2 1-487)
chain: MPSAFEKVVKNVIKEVSGSRGDLIPVDSLRNSTSFRPYCLLNRKFSSSRFWKPRYSCVNLSIKDILEPSAPEPEPECFGSFKVSDVVDGNIQGRVMLSGMGEGKISGGAAVSDSSSASMNVCILRVTQKTWETMQHERHLQQPENKILQQLRSRGDDLFVVTEVLQTKEEVQITEVHSQEGSGQFTLPGALCLKGEGKGHQSRKKMVTIPAGSILAFRVAQLLIGSKWDILLVSDEKQRTFEPSSGDRKAVGQRHHGLNVLAALCSIGKQLSLLSDGIDEEELIEAADFQGLYAEVKACSSELESLEMELRQQILVNIGKILQDQPSMEALEASLGQGLCSGGQVEPLDGPAGCILECLVLDSGELVPELAAPIFYLLGALAVLSETQQQLLAKALETTVLSKQLELVKHVLEQSTPWQEQSSVSLPTVLLGDCWDEKNPTWVLLEECGLRLQVESPQVHWEPTSLIPTSALYASLFLLSSLGQKPC

Key:
[1] = molecular target: T1, endogenous NLRP6 (mouse (endogenous in small intestinal enterocytes)); experiment: co-IP
[2] = molecular target: T2, Myc-tagged NLRP6 full-length; experiment: co-IP
[3] = molecular target: Recombinant GST-iTie (mouse) (UniProt Q810Q5); experiment: pull-down
[4] = molecular target: FLAG-tagged iTie (mouse) (UniProt Q810Q5); experiment: co-IP
[5] = molecular target: Endogenous iTie (mouse (endogenous in small intestinal enterocytes)) (UniProt Q810Q5); experiment: co-IP

Molecule	binding [3]	binding [4]	further results
Endogenous iTie (from UniProt Q810Q5 1-83)			binding [1]: binds
FLAG-tagged iTie (from UniProt Q810Q5 1-83)			binding [2]: binds
B1	binds	binds	
B2	binds		binding [5]: binds
B3		no binding	
B4		no binding	
